Measured values taken from CN110760483A.
These are yes or no findings as the source states them, for the method shown. Some entries that bind do so weakly or less than the wild type. For some assays here: Tags and fused reporters may be left off the sequences shown.

Columns and labels:
[1] = target: T1, rGST-ShTNF-α (pGEX-6p-1-ShTNF-α, E. coli BL21) (羊 (sheep)) (UniProt P23383); assay: Western blot with HRP-3C1 1:1000
T1 sequence (looked up): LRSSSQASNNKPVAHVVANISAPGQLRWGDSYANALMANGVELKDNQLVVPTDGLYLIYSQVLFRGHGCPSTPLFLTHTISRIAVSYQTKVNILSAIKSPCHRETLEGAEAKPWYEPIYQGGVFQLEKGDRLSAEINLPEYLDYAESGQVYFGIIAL

[2] = target: T2, rHis-ShTNF-α (pET-30a(+)-ShTNF-α, E. coli BL21(DE3)) (羊 (sheep)) (UniProt P23383); assay: Western blot with HRP-3C1 1:1000
T2 sequence (looked up): T1 sequence (looked up)

[3] = target: T3, ShTNF-α (英国Abcam公司, ab184579) (羊 (sheep)) (UniProt P23383); assay: indirect ELISA, protein coated at 0.5μg/mL, 3C1 hybridoma supernatant
T3 sequence (looked up): T1 sequence (looked up)

[4] = target: T4, 真核表达的牛TNF-α蛋白 (Hela(pCMV-Myc-BoTNF-α)) (牛 (bovine)) (UniProt Q06599); assay: direct immunofluorescence on methanol-fixed transfected Hela cells, FITC-3C1 1:1000
T4 sequence (looked up): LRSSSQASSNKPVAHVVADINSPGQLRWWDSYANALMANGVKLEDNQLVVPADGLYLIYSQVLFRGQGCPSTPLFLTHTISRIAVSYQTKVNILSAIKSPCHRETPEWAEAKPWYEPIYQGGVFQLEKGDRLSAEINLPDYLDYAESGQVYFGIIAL

[5] = target: T5, 真核表达的羊TNF-α蛋白 (Hela(pCMV-Myc-ShTNF-α)) (羊 (sheep)) (UniProt P23383); assay: as above
T5 sequence (looked up): T1 sequence (looked up)

Measured: binding

B1: 单克隆抗体3C1 (具牛、羊交叉反应的抗TNF-α单克隆抗体, 杂交瘤 CCTCC NO:C2019129) (antibody, V domains shown)
VH: QVQLKQSGPGLVQPSQSLSITCTVSGFSLTNFSVHWVRQPPGKGLEWLGVMWSGGSTDYNAAFISRLSIIKDNSKSQVFFKMNGLQADDTAIYYCARSGPYYYSLDYWGQGTSVTVSS
VL: DIQMTQSPASLSASVGETVTITCRASENIYIYLAWYQQKQGKSPQLLVYNAKTLAEGVPSRFSGSGSGTQFSLNINSLQPEDFGSYYCQHHYGTPWTFGGGTKLEIK
binds: all assays above
